Among the data in paper PMC5008356 are binding values, retold here.

Amino acid sequences for entries named in this document (tags omitted). Residues count along the entry.
UniProt Q04206: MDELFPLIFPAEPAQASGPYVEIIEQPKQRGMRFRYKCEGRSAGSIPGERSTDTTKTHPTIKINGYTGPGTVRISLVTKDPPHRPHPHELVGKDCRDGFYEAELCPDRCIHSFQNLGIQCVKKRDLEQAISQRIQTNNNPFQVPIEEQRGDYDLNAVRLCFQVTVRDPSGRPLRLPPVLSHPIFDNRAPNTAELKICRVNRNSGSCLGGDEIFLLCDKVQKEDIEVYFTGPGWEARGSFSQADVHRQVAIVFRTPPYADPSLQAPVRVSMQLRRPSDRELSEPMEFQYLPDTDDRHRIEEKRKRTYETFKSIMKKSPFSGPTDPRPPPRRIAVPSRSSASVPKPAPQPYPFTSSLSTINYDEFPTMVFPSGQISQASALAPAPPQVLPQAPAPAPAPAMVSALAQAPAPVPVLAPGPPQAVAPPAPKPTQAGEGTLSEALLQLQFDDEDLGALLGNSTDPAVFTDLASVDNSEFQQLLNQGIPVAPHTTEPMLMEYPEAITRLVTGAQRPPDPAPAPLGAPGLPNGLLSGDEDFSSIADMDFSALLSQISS
UniProt P63165, residues 1-97: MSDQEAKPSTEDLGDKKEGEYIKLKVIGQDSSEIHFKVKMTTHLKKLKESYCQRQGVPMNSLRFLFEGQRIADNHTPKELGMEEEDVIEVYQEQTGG

For test [1], the target named is p65 (human (endogenous in SMMC7721)) (UniProt Q04206). Nature of the test: co-IP; whole cell lysates of SMMC7721 cells 24 hours after transfection with GFP-SUMO1 and myc-UBC9; untreated, or treated with 10 ng/ml TNF-α for 30 min or OGD for 150 min; anti-p65 antibody on Protein A agarose, 4 °C; lysis buffer 50 mM HEPES, 150 mM NaCl, 2 mM EGTA, 0.1% Triton X-100, pH 7.4, 20 mM NEM; blot with anti-SUMO1; isotype IgG as negative control.

The target in test [2] is p65 (human (endogenous in HCC tumor tissue)) (UniProt Q04206). Put plainly: co-IP; lysates of tumor tissues of HCC patients; anti-p65 antibody on Protein A agarose, 4 °C; lysis buffer 50 mM HEPES, 150 mM NaCl, 2 mM EGTA, 0.1% Triton X-100, pH 7.4, 20 mM NEM; blot with anti-SUMO1; isotype IgG as negative control.

No constants are given. Whether binding was seen depends on the method and setting. Binding seen in cells or lysates may run through a third protein. Some results given as binding are weak or reduced against the parent protein; the word gives no strength.

Consider GFP-SUMO1 (from UniProt P63165 1-97), for which the binding entry in test [1] is listed as “binds”.

Consider “Small ubiquitin-related modifier 1 (from UniProt P63165 1-97)”, for which the binding entry in test [2] is on record as “binds”.
